The exact form of at least one protein or probe is not confirmed.
Target: Ku70 (UniProt P12956)
Test: MST
Details: 50 nM labelled DNA, no binding specificity; MST in standard MST buffer (composition and pH not given), premium-treated capillaries, Monolith NT.115; 20 min at room temperature stated for the protein mixes; commercial protein; label: 647-NHS

Protein sequences, listed by entry. Tags and fused reporters are not part of them. Lines headed by an entry give the natural chain unless they say otherwise; changes in a name come on top.
UniProt P12956: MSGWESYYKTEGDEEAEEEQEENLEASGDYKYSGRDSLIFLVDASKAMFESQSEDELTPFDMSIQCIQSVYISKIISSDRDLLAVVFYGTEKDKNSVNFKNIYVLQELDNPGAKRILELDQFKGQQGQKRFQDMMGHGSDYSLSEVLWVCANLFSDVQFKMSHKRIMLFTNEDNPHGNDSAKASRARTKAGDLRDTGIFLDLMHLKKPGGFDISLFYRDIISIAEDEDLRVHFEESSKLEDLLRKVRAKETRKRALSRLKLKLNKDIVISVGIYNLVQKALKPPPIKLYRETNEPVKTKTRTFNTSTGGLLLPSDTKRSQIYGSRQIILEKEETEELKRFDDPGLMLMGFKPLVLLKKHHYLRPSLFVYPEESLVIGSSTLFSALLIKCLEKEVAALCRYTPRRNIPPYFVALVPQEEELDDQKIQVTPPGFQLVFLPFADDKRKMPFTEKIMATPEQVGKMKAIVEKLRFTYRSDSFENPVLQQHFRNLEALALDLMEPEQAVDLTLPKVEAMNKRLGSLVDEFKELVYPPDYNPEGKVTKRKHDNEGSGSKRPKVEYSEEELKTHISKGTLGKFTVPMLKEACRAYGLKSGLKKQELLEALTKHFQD

TTAGGGTTAGGGTTAGGG (double strand) [TELO (TTAGGG)3]
Kd: 2370 nM

Reference: publication PMC6715699
